According to PMC5400277:
These are yes or no findings as the source states them, for the method shown. For some assays here: In cells and extracts the contact can be indirect. Sequences can lack the tags named with a protein. Some entries that bind do so weakly or less than the wild type.

B1: NO … TRACT (NTT), yeast two-hybrid fusion (protein, UniProt Q9SVY1 1-383)
chain: MTDPYSNFFTDWFKSNPFHHYPNSSTNPSPHPLPPVTPPSSFFFFPQSGDLRRPPPPPTPPPSPPLREALPLLSLSPANKQQDHHHNHDHLIQEPPSTSMDVDYDHHHQDDHHNLDDDDHDVTVALHIGLPSPSAQEMASLLMMSSSSSSSRTTHHHEDMNHKKDLDHEYSHGAVGGGEDDDEDSVGGDGGCRISRLNKGQYWIPTPSQILIGPTQFSCPVCFKTFNRYNNMQMHMWGHGSQYRKGPESLRGTQPTGMLRLPCYCCAPGCRNNIDHPRAKPLKDFRTLQTHYKRKHGIKPFMCRKCGKAFAVRGDWRTHEKNCGKLWYCICGSDFKHKRSLKDHIKAFGNGHGAYGIDGFDEEDEPASEVEQLDNDHESMQSK
B2: ARABIDOPSIS RESPONSE REGULATOR 1 (ARR1), BiFC fusion (protein, UniProt Q940D0 1-690)
chain: MMNPSHGRGLGSAGGSSSGRNQGGGGETVVEMFPSGLRVLVVDDDPTCLMILERMLRTCLYEVTKCNRAEMALSLLRKNKHGFDIVISDVHMPDMDGFKLLEHVGLEMDLPVIMMSADDSKSVVLKGVTHGAVDYLIKPVRMEALKNIWQHVVRKRRSEWSVPEHSGSIEETGERQQQQHRGGGGGAAVSGGEDAVDDNSSSVNEGNNWRSSSRKRKDEEGEEQGDDKDEDASNLKKPRVVWSVELHQQFVAAVNQLGVEKAVPKKILELMNVPGLTRENVASHLQKYRIYLRRLGGVSQHQGNLNNSFMTGQDASFGPLSTLNGFDLQALAVTGQLPAQSLAQLQAAGLGRPAMVSKSGLPVSSIVDERSIFSFDNTKTRFGEGLGHHGQQPQQQPQMNLLHGVPTGLQQQLPMGNRMSIQQQIAAVRAGNSVQNNGMLMPLAGQQSLPRGPPPMLTSSQSSIRQPMLSNRISERSGFSGRNNIPESSRVLPTSYTNLTTQHSSSSMPYNNFQPELPVNSFPLASAPGISVPVRKATSYQEEVNSSEAGFTTPSYDMFTTRQNDWDLRNIGIAFDSHQDSESAAFSASEAYSSSSMSRHNTTVAATEHGRNHQQPPSGMVQHHQVYADGNGGSVRVKSERVATDTATMAFHEQYSNQEDLMSALLKQEGIAPVDGEFDFDAYSIDNIPV
B3: ARR18, yeast two-hybrid fusion (protein, UniProt Q9FGT7 1-635)
chain: MEFGSTEDGRHDKFPVGMRVLAVDDNPTCLRKLEELLLRCKYHVTKTMESRKALEMLRENSNMFDLVISDVEMPDTDGFKLLEIGLEMDLPVIMLSAHSDYDSVMKGIIHGACDYLVKPVGLKELQNIWHHVVKKNIKSYAKLLPPSESDSVPSASRKRKDKVNDSGDEDDSDREEDDGEGSEQDGDGSGTRKKPRVVWSQELHQKFVSAVQQLGLDKAVPKKILDLMSIEGLTRENVASHLQKYRLYLKKIDEGQQQNMTPDAFGTRDSSYFQMAQLDGLRDFTAARQIPSSGLLSRSHLTKLQPPMYSSINLQGMNSSSFIQQGHHQNSSNSANPFGTYHSTLSPRIQNVNLFQRTSSPLEPLQFPRSKSYIGDFKGLGDRAIGGSFLDTCMPFGSSSTSLPSASTNPLMLQANYTQPLHIASDGIQPCIEGTPSNSASPNISFQGLSRFPGHSWQGNLNTTRFPPSSLPLNLAFLPDQVTCAGNNLGDCTSLVSAENPGGEMQCDPQLLGGFMQNVNPLGGQKWEQQNCTMLNNPFGNIEYPLPADNMVFRDNNSTRSKGLDESLMNPIDNSQEYVGKATTMLDPEMKSGKPENDNQHDVFDDIMNEMMKQEENNGMVPVATRFGFDSFPPP
B4: ARR20, yeast two-hybrid fusion (protein, UniProt Q9LZJ8 1-426)
chain: MSVFSNILDENSRNLRNEIPCDDGIASPINDDDEEFLTKSNRVLLVGADSNSSLKNLMTQYSYQVTKYESGEEAMAFLMKNKHEIDLVIWDFHMPDINGLDALNIIGKQMDLPVVIMSHEYKKETVMESIKYGACDFLVKPVSKEVIAVLWRHVYRKRMSKSGLDKPGESGTVESDPDEYDDLEQDNLYESNEEGSKNTCDHKEEKSPTKKPRMQWTPELHHKFEVAVEKMGSLEKAFPKTILKYMQEELNVQGLTRNNVASHLQKYRQSSKKTCTPQEPQEDFVWGNAGPDVTLAASKTLLSSHATPSYLINNQAAPRGSYFMNNIPYPSTSCLPVNNNNCFMTNPSTYIDQFQHQLQQQQQHQQYQSTLNSISAMLTKQESRHVPSSAMENSEPLMIYNSNLPFGIDECFPPAGFNIFDQIGHN
B5: ARR21, yeast two-hybrid fusion (protein, UniProt Q9LYP5 1-613)
chain: MASAQSFYNQSSVLKINVMVVDDDHVFLDIMSRMLQHSKYRVIAVDDPKKALSTLKIQRDNIDLIITDYYMPGMNGLQLKKQITQEFGNLPVLVMSSDTNKEEESLSCGAMGFIPKPIHPTDLTKIYQFALSNKRNGKSTLSTEQNHKDADVSVPQQITLVPEQADVLKTKRKNCSFKSDSRTVNSTNGSCVSTDGSRKNRKRKPNGGPSDDGESMSQPAKKKKIQWTDSLHDLFLQAIRHIGLDKAVPKKILAFMSVPYLTRENVASHLQKYRIFLRRVAEQGLYSMLSDRGIDSMFRQTHIKEPYFNYYTPSTSWYDTRLNNRSFYSKPVHGFGQSKLLSTTREPVCFNQMPYNYMNRSSTYEPHRIGSGSNLTLPIQSNLSFPNQPSQNEERRSFFEPPVMANKIAQTSQVLGFGQLGPSAISGHNFNNNMTSRYGSLIPSQPGPSHFSYGMQSFLNNENVTYNPQPPANATTQPNLDELPQLENLNLYNDFGNTSELPYNISNFQFDDNKHQQGEADPTKFELPAAKFSTELNHEDDGDWTFVNINQGQSNGETSNTIASPETNTPILNINHNQNQGQDVPEFNDWSFLDPQELVDDDFMNSLFNNDMN

Columns and labels:
[1] = compound: NO … TRACT (NTT), yeast two-hybrid fusion (UniProt Q9SVY1); assay: two-hybrid; DNA-binding domain fusion (SPT in the LexA vector pBTM116c-D9) against Gal4 activation domain fusions (ARRs in pACT2); yeast strain L40ccaU; SD-Gluc medium lacking Leu, Trp, His with 3 mM 3-amino-1,2,4-triazole; scored after 5 days at 25°C
[2] = target: T1, SPATULA (SPT), BiFC fusion (Arabidopsis) (UniProt Q9FUA4); assay: split reporter; BiFC with C- and N-terminal YFP fusion constructs (pYFC43, pYFN43) in young N. tabacum leaves; YFP signal assayed 3 days after infiltration by confocal microscopy
T1 sequence: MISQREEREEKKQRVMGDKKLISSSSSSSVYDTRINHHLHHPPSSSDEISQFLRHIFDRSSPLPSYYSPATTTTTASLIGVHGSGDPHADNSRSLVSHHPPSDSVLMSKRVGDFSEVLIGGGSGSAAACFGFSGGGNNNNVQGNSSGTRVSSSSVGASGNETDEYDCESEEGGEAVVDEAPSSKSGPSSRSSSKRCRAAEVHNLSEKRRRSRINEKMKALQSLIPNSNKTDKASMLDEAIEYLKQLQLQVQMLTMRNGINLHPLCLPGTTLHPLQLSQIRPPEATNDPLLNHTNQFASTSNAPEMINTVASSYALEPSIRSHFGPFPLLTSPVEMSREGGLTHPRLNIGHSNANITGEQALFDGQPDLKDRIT

[3] = target: T2, SPATULA (SPT), yeast two-hybrid fusion (Arabidopsis) (UniProt Q9FUA4); assay: two-hybrid; DNA-binding domain fusion (SPT in the LexA vector pBTM116c-D9) against Gal4 activation domain fusions (ARRs in pACT2); yeast strain L40ccaU; SD-Gluc medium lacking Leu, Trp, His with 3 mM 3-amino-1,2,4-triazole; scored after 5 days at 25°C
T2 sequence: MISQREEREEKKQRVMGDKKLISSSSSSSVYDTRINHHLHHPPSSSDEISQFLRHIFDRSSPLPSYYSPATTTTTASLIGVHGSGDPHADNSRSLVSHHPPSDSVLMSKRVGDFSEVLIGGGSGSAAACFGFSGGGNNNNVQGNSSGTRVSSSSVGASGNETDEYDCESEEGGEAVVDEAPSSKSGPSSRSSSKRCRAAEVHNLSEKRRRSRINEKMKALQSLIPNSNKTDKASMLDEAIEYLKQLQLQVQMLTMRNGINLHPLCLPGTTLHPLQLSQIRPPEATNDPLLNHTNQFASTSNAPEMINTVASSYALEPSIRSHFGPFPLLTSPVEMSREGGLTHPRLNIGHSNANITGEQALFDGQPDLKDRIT

| binding [3] | also measured | Binder |
| --- | --- | --- |
| – | binding [1]: binds | B1 |
| – | binding [2]: no binding | B2 |
| no binding | – | B3 |
| no binding | – | B4 |
| no binding | – | B5 |
